# Source: PubChem BioAssay AID1347076 (National Center for Advancing Translational Sciences (NCATS), 2019)
# In all, about 400,000 compounds went through this assay and about 13,000 (3.2%) were called active. Inconclusive means that the source gave no clear call. Such entries were picked first, then a sample of the others. Calls follow the shape of the dose curve; as a rule, active = well fitted cell-killing curve with a large enough effect; inconclusive = small, poorly fitted or top-dose-only effect, or effect the other way; inactive = flat fitted curve, though single readings scatter. Potencies beside an inconclusive call are fits to weak or partial responses and may not hold up.
# Experiment: qHTS assay for MDR1-selective chemotherapeutics: Primary screen using the drug-selected MDR subline cells KB-V1; also: nearly all actives have a fitted effect of over 60% in size
# Conditions: KB-V1 MDR cells viability, CellTiter-Glo, 72 h; activity change, negative = cytotoxicity: at 46.1 µM (top of the series)
# Outline: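 Readout: CellTiter-Glo luminescence, 10 min after addition. Cells: KB-V1 MDR subline, 72 h at 37 degrees C with compound. Analysis: corrected, normalized data fitted to concentration-effect curves.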
# % is scaled to controls: 0 for no effect and ±100 for the full control effect; potency is read from the fitted curve at half-maximal effect.
SMILES,"activity change, negative = cytotoxicity",Potency
CC(=O)N[C@@H]1CC[C@@]2(O)[C@H]3Cc4ccc(O)c5c4[C@@]2(CCN3CC2CC2)[C@@H]1O5,inactive: -0.196%,
c1ccc2cc(C3N4CCCN34)ccc2c1 (stereo not drawn),inactive: 7.2%,
Cc1ccc(NP(=O)(Oc2ccccc2F)Oc2ccccc2F)cc1,,"inconclusive: 29.1 µM [cytotoxic, single point]"
Cc1[nH]c2ccccc2c1CN1CCCCC1,,"inconclusive: 9.2 µM [cytotoxic, partial curve, poor fit]"
O=C(COc1ccc(Cl)cc1)N(c1ccccc1Cl)C1CN2CCC1CC2 (stereo not drawn),,"inconclusive: 11.6 µM [cytotoxic, partial curve]"
COC(=O)C1=C(c2cccc(OC)c2OC)C[C@@H]2CC[C@H]1N2C(=O)N1CCC(C)CC1,inactive: 17.7%,
COC(=O)C1=C(c2cccc(OCc3ccccc3)c2)C[C@@H]2CC[C@H]1N2C(=O)NCc1ccc(C(C)(C)C)cc1,inactive: -18.9%,
O=c1[nH]c(Cl)ccc1CN1CCOCC1,,"inconclusive: 0.731 µM [cytotoxic, full curve, poor fit]"
C[C@@H]1O[C@@H](O[C@@H]2C=C3CCC4C(CC[C@]5(C)[C@@H](c6ccc(=O)oc6)CC[C@]45O)[C@@]3(C)CC2)[C@H](O)[C@H](O)[C@H]1O (stereo partly drawn),,"inconclusive: 0.0517 µM [cytotoxic, full curve, poor fit]"
COC1C(O)C(C)OC(OC2CCC3(C=O)C(CCC4C3CCC3(C)C(C5=CC(=O)OC5)CCC43O)C2)C1O (stereo not drawn),,"inconclusive: 0.0116 µM [cytotoxic, full curve, poor fit]"
COC(=O)C1=C(c2cccc(OCc3ccccc3)c2)C[C@@H]2CC[C@H]1N2C(=O)NCc1ccccc1,,"inconclusive: 29.1 µM [cytotoxic, single point]"
C[C@]12CCC3C(C[C@@H](O)[C@H]4C[C@@H](O)CC[C@]34C)C1CC[C@@H]2O (stereo partly drawn),inactive: -0.285%,
CC12CC[C@H]3[C@@H](CCC4(O)C[C@H](O)CCC34/C=N/NC(=O)c3ccc(O)cc3)C1(O)CCC2C1=CC(=O)OC1 (stereo partly drawn),inactive: 0%,
COC(=O)c1cccc(NC(=O)N2C[C@H]3C[C@@H](C2)c2cccc(=O)n2C3)c1,,"inconclusive: 9.2 µM [rising, partial curve, poor fit]"
O=P(OCC(F)(F)C(F)F)(N1CCOCC1)N1CCOCC1,,"inconclusive: 11.6 µM [rising, partial curve]"
CC=C(CC)C1(CCC)C(=O)NC(=S)NC1=O,inactive: -8.35%,
CN(C)c1ccc(-[n+]2c(-c3ccccc3)cc(-c3ccccc3)cc2-c2ccccc2)cc1,,active: 20.6 µM
CCCc1nnc(NC(=O)CCC(=O)N2CCN(CCOC(c3ccccc3)c3ccccc3)CC2)s1,inactive: -0.297%,
CC(=O)c1ccc2c(c1)C1C(Cl)C(Sc3ccccc3[N+](=O)[O-])CC1C(C(=O)O)N2 (stereo not drawn),,active: 10.3 µM

SMILES,"activity change, negative = cytotoxicity",Potency
CC(C)Nc1nc(Cl)nc(NC(C)C)n1,inactive: 0%,
CCC1CO/C(=C(\C(Cl)=C(Cl)Cl)[N+](=O)[O-])N1Cc1ccc(Cl)nc1 (stereo not drawn),,"inconclusive: 14.6 µM [rising, partial curve, poor fit]"
Cc1cccc(NC(=O)N2CC3CC(C2)c2cccc(=O)n2C3)c1 (stereo not drawn),,"inconclusive: 13 µM [rising, partial curve, poor fit]"
O=C(CCN1CCOCC1)NCC(=O)Nc1ccc(Br)cc1C(=O)c1ccccc1,inactive: 5.56%,
CN(C)C(=O)Oc1ccc(OCc2nc3ccccc3[nH]2)cc1,,active: 11.6 µM
COc1ccc(CN(CCc2c[nH]c3ccccc23)Cc2ccc(OC)cc2)cc1,,"inconclusive: 23.1 µM [cytotoxic, single point]"
CN1CCC2(CC1)C(C#N)=C(N)NC(S)=C2C#N,,inactive
Cc1c(C=O)c2ccccc2n1Cc1ccccc1F,,"inconclusive: 29.1 µM [cytotoxic, single point]"
COC(=O)C1=C(c2ccc(Cl)c(C(F)(F)F)c2)C[C@@H]2CC[C@H]1N2C(=O)N1CCC(C)CC1,,"inconclusive: 29.1 µM [cytotoxic, single point]"
O=C(c1ccco1)N1Cc2ccccc2-n2nncc2C1,,"inconclusive: 18.4 µM [rising, partial curve, poor fit]"
CCOC(=O)[C@]12Cc3cc(OC)ccc3[C@H]1N(CC(=O)OC)C(=O)c1cc(OC)ccc12,,"inconclusive: 29.1 µM [cytotoxic, single point]"
COc1ccccc1OCC(=O)N1CCN(Cc2ccc3c(c2)OCO3)CC1,,"inconclusive: 16.4 µM [cytotoxic, single point]"
Fc1ccc(N2CCN(Cc3ccc4c(c3)OCO4)CC2)cc1,,"inconclusive: 29.1 µM [cytotoxic, partial curve, poor fit]"
CCOC(=O)c1cccc(C2=C(CNC(=O)c3cccnc3)[C@H]3CC[C@@H](C2)N3Cc2ccccc2)c1,,"inconclusive: 20.6 µM [cytotoxic, single point]"
O=[N+]([O-])/C=C1\NCCN1Cc1ccc(Cl)nc1,inconclusive: -35.3% [cytotoxic],
COc1cc(C)cc2oc(=O)c(CC(=O)N3C[C@H]4C[C@@H](C3)c3cccc(=O)n3C4)c(C)c12,inactive: -9.86%,
CC12CC[C@H]3[C@@H](CCC4(O)C[C@H](O)CCC34/C=N/NC(=O)c3ccccc3O)C1(O)CCC2C1=CC(=O)OC1 (stereo partly drawn),,"inconclusive: 18.4 µM [cytotoxic, partial curve]"
COc1c(C)cc(C(=O)C2CCCN(Cc3ccccn3)C2)cc1C (stereo not drawn),inactive: 1.67%,
COC(=O)C1=C(c2ccc3ccccc3c2)C[C@@H]2CC[C@H]1N2C(=O)N1CCCC1,,"inconclusive: 7.31 µM [cytotoxic, single point]"
